Paper PMC4081081 (2014)
The exact form of at least one protein or probe is not confirmed. At least one verdict rests on a figure or table, not on a statement of the authors. Tags and fusion partners may be left off the protein sequences shown.

Biological target: T1, G4 resolvase 1 (G4R1) (UniProt Q9H2U1)
T1 sequence (looked up, limits assumed): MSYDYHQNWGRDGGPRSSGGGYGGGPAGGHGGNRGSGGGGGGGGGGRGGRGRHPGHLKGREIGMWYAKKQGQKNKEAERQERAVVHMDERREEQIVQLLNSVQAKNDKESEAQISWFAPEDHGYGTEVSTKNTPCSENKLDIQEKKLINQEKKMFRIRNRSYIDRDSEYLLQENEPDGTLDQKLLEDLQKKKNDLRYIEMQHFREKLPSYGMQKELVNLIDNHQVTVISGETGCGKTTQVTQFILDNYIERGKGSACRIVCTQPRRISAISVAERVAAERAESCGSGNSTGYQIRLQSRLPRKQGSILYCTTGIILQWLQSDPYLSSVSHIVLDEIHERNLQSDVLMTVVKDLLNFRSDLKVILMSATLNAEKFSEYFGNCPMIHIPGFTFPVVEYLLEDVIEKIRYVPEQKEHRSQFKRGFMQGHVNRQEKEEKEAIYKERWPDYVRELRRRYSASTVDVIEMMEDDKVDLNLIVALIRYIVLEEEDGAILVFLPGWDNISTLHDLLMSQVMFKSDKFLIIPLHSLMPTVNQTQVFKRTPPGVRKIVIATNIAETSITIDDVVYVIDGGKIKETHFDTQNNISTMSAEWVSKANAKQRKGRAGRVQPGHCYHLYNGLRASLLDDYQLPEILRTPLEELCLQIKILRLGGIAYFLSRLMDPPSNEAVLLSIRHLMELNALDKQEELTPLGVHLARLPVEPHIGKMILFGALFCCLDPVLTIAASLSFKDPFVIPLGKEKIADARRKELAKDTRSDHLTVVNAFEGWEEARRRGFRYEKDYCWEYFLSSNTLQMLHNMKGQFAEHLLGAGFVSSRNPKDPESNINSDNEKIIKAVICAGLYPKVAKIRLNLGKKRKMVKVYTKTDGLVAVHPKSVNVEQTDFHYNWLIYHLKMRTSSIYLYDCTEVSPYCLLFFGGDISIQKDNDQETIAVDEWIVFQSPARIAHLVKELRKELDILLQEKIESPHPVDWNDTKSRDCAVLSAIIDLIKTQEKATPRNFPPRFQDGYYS
Experiment: pull-down
Conditions: streptavidin beads, 37 C, 0.5 mM MgCl2, 50 mM NaCl, ATP-dependent elution (purification step); 5' biotin-dT (printed as /5BiodT/, not included in S35); recombinant protein; protein details: His6; label: 5' biotin; folded or branched DNA

“GGCCGCTTATGGGGAGGGTGGGGAGGGTGGGGAAGGTGGGGAGGAGACTCA [Biotin c-Myc 51mer]”: binds.
